Values quoted from earlier work in patent publication US20220031713A1, “METHODS OF TREATING MYELOPROLIFERATIVE DISORDERS” (Impact Biomedicines, Inc., priority 2018, published 2022).

System: MPN-associated myelofibrosis
Conditions: cited from earlier work

Structure (SMILES): N#CC[C@H](C1CCCC1)n1cc(-c2ncnc3[nH]ccc23)cn1 [ruxolitinib, (3R)-3-cyclopentyl-3-[4-(7H-pyrrolo[2,3-d]pyrimidin-4-yl)pyrazol-1-yl]propanenitrile]
- discontinuation rate (1-year): 49%
- discontinuation rate (2-year): 71%
- discontinuation rate (3-year): 86%

Read-outs that look alike come from different tables or passages of the source.
